The target of the test is T1, endothelial nitric oxide synthase (eNOS) (human (endogenous in primary human endothelial cells)) (UniProt P29474).
T1 sequence: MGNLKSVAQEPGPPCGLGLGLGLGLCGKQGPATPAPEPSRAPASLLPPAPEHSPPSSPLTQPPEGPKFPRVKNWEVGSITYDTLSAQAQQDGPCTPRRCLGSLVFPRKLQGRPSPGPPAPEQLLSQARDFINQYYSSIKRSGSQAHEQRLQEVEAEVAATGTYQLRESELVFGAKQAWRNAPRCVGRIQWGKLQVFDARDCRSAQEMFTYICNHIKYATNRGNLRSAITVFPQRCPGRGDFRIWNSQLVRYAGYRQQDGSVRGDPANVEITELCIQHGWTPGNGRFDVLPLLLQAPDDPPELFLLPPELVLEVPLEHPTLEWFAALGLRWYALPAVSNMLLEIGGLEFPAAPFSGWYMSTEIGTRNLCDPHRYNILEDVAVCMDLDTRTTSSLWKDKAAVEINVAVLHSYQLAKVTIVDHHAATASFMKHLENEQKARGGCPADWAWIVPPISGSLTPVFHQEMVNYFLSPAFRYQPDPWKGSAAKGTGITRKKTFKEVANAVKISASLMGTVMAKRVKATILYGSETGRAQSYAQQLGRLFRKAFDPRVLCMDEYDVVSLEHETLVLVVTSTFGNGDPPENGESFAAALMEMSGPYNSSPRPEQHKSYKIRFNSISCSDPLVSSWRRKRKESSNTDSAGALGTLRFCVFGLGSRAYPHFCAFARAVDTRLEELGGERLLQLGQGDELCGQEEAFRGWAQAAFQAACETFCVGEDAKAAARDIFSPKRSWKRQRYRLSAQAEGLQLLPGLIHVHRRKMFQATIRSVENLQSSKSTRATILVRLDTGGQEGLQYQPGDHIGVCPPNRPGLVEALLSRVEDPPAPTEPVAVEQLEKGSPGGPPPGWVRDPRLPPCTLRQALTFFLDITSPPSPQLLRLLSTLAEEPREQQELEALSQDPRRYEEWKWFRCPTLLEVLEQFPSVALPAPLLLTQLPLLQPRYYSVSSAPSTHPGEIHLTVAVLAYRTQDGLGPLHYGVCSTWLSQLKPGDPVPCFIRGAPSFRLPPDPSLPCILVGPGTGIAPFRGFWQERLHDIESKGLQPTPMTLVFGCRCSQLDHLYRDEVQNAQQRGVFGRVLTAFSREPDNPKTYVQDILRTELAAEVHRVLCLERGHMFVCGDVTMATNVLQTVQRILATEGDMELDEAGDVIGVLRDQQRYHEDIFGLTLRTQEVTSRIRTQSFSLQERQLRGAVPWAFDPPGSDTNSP
Kind of test: proximity ligation; Duolink In Situ kit on fixed, permeabilised primary human EC 18 h after transfection (empty vector, GRHL3 FL or GRHL3 ΔbiNLS); primary antibodies against the myc-tag or Akt1 and against eNOS; controls omitting one antibody.

Results are given in words; binding and its absence hold for the method and conditions named. Binding seen in cells or lysates may run through a third protein. A result given as binding can be weak or reduced; the word gives no strength.

On to “human full-length Grainyhead-like 3 (GRHL3) isoform 2 with a C-terminal myc-tag”, for which the binding entry was “binds”.
